This is an account of results in article PMC11383945.

The chains behind the UniProt entries cited, without tags or fusion partners. Where a name states a change or a piece, a line headed by the entry shows the natural chain unless it says otherwise. Residues count along the entry.
UniProt P35240: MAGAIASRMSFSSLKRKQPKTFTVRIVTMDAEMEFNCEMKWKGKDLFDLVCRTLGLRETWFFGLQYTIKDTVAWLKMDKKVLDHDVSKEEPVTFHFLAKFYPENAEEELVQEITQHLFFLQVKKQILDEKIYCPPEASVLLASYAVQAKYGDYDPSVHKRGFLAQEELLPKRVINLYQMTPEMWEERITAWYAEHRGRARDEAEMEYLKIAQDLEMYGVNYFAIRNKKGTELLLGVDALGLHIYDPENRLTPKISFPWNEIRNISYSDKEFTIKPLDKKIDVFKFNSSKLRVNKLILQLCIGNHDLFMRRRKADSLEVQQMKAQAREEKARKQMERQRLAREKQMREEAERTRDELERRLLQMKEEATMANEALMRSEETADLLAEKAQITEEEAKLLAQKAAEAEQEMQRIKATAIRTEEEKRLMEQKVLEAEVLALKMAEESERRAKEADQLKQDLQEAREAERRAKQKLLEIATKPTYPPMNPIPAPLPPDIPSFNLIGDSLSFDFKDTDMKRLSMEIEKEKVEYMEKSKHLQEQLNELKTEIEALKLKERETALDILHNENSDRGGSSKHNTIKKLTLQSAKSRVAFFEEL
UniProt Q9Y2J4: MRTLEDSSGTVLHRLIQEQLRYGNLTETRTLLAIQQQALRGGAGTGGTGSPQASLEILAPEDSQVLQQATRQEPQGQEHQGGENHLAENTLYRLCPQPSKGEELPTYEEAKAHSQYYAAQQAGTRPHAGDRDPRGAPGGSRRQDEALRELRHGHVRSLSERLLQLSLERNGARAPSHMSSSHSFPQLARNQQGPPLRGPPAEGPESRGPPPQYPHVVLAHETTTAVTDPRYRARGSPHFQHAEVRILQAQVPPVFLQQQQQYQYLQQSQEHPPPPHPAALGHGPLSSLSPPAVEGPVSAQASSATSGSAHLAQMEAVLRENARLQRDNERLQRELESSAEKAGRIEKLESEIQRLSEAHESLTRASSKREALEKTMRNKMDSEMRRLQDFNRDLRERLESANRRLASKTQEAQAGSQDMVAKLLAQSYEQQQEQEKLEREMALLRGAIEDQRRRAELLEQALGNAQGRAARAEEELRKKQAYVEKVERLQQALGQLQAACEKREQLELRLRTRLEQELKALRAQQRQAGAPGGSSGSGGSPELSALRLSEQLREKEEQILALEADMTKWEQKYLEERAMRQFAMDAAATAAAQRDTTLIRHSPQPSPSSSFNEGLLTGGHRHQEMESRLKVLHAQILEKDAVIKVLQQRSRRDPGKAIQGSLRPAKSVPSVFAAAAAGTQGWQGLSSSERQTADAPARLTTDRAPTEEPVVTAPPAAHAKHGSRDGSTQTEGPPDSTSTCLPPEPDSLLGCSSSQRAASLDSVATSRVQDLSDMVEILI
UniProt Q14126, residues 50-1118: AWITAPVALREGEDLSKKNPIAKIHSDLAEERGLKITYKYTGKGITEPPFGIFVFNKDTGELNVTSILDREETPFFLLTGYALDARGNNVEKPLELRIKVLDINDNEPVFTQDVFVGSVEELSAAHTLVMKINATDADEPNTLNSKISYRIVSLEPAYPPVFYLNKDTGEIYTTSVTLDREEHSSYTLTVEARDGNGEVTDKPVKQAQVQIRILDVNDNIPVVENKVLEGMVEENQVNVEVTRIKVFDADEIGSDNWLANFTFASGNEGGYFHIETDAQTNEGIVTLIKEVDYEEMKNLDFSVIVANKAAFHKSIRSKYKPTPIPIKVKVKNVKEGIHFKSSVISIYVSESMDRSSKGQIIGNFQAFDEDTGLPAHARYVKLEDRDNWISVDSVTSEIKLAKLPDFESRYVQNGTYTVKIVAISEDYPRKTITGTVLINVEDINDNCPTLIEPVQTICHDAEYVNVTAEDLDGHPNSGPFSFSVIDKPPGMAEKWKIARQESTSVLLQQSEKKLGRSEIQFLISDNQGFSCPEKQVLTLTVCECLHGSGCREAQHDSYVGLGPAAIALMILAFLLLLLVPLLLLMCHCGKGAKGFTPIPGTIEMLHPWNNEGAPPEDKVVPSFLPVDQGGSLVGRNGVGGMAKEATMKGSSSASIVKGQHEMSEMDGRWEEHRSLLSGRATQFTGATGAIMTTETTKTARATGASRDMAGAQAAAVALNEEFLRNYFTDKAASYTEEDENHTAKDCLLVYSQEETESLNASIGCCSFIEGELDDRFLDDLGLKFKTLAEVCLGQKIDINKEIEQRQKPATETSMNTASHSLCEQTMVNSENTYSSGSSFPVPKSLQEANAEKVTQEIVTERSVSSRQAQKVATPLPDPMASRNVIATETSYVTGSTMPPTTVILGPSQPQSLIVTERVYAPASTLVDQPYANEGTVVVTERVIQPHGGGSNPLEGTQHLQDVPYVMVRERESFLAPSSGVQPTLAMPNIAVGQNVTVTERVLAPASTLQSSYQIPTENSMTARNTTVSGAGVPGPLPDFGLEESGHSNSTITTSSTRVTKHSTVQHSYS
UniProt P62136: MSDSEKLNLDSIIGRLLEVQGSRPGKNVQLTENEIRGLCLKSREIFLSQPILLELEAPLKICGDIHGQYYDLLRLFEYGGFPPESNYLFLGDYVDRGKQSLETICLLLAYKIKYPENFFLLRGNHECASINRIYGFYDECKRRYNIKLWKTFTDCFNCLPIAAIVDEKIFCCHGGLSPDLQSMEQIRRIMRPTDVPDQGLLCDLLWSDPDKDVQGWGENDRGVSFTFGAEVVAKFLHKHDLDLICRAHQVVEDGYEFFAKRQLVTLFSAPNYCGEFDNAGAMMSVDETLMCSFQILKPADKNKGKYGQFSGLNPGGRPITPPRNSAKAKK
UniProt P35222: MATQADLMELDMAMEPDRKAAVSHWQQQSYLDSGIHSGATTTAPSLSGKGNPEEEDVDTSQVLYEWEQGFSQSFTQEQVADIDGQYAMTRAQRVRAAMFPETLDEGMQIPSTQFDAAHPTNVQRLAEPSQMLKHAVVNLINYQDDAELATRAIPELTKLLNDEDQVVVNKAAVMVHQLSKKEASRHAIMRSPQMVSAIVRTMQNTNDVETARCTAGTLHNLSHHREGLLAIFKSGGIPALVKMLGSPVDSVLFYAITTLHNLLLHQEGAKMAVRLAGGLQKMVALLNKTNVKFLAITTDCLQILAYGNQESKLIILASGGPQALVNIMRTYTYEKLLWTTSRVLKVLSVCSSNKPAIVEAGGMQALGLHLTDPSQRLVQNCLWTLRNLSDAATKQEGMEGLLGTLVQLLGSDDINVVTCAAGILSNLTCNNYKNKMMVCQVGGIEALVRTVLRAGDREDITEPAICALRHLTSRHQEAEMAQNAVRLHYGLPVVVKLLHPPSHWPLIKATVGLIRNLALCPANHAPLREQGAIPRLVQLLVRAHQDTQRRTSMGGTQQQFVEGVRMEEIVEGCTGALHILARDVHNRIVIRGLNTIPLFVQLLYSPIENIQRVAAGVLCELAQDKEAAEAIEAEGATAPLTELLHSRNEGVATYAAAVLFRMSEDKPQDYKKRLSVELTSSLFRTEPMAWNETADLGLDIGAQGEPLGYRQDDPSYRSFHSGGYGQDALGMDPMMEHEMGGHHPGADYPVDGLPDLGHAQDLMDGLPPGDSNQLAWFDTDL

What all share (assay): proximity labelling; APEX2 fused to Merlin in M10G cells; 0.1 μg/ml doxycycline 24 h; 0.5 mM biotin-phenol 30 min at 37 °C, 1 mM H2O2 30 s on ice; streptavidin pulldown and mass spectrometry (n = 3/condition)
In assay [1] the target is Merlin^WT with C-terminal FLAG and APEX2 tags (human) (UniProt P35240).
The target in assay [2] is Merlin^A211D with C-terminal FLAG and APEX2 tags (human) (UniProt P35240).
Assay [3] addresses Merlin^L46R with C-terminal FLAG and APEX2 tags (human) (UniProt P35240).
Assay [4] addresses Merlin^S13A (unphosphorylatable) with FLAG and APEX2 tags (human) (UniProt P35240).
Assay [5] concerns the target Merlin^S13D (phospho-mimetic) with FLAG and APEX2 tags (human) (UniProt P35240).
In assay [6] the target is Merlin^WT with C-terminal FLAG and APEX2 tags (human) (UniProt P35240). The source holds these as a separate data set.

Where two headings read alike, the source gives them in different places. These are yes or no findings as the source states them, for the method shown. Binding seen in cells or lysates may run through a third protein. A yes stands for co-enrichment or nearness to the bait. Other partners may have been found. For part of these data: No binding means not detected with the bait.

Turning to “AMOTL2 (endogenous, meningioma cells) (from UniProt Q9Y2J4 1-779)”, the binding entry in assay [1] is “binds”.
Consider “DSG2 (endogenous, meningioma cells) (from UniProt Q14126 50-1118)”, for which, in assay [1], the binding entry was “binds”.
As to “PP1A (endogenous, M10G meningioma cells) (from UniProt P62136 1-330) (enzyme)”, the binding entry in assay [1] was “binds”.
As for “β-catenin (endogenous, M10G meningioma cells) (from UniProt P35222 1-781)”, the binding result is on record as “binds” in assay [2]; “no binding” in assay [3]; “no binding” in assay [4]; “binds” in assay [5]; “binds” in assay [1].

B1: AMOTL1 (endogenous, meningioma cells) (protein, UniProt Q8IY63 1-956)
chain: MWRAKLRRGTCEPAVKGSPSACYSPSSPVQVLEDSTYFSPDFQLYSGRHETSALTVEATSSIREKVVEDPLCNFHSPNFLRISEVEMRGSEDAAAGTVLQRLIQEQLRYGTPTENMNLLAIQHQATGSAGPAHPTNNFSSTENLTQEDPQMVYQSARQEPQGQEHQVDNTVMEKQVRSTQPQQNNEELPTYEEAKAQSQFFRGQQQQQQQQGAVGHGYYMAGGTSQKSRTEGRPTVNRANSGQAHKDEALKELKQGHVRSLSERIMQLSLERNGAKQHLPGSGNGKGFKVGGGPSPAQPAGKVLDPRGPPPEYPFKTKQMMSPVSKTQEHGLFYGDQHPGMLHEMVKPYPAPQPVRTDVAVLRYQPPPEYGVTSRPCQLPFPSTMQQHSPMSSQTSSASGPLHSVSLPLPLPMALGAPQPPPAASPSQQLGPDAFAIVERAQQMVEILTEENRVLHQELQGYYDNADKLHKFEKELQRISEAYESLVKSTTKRESLDKAMRNKLEGEIRRLHDFNRDLRDRLETANRQLSSREYEGHEDKAAEGHYASQNKEFLKEKEKLEMELAAVRTASEDHRRHIEILDQALSNAQARVIKLEEELREKQAYVEKVEKLQQALTQLQSACEKREQMERRLRTWLERELDALRTQQKHGNGQPANMPEYNAPALLELVREKEERILALEADMTKWEQKYLEESTIRHFAMNAAATAAAERDTTIINHSRNGSYGESSLEAHIWQEEEEVVQANRRCQDMEYTIKNLHAKIIEKDAMIKVLQQRSRKDAGKTDSSSLRPARSVPSIAAATGTHSRQTSLTSSQLAEEKKEEKTWKGSIGLLLGKEHHEHASAPLLPPPPTSALSSIASTTAASSAHAKTGSKDSSTQTDKSAELFWPSMASLPSRGRLSTTPAHSPVLKHPAAKGTAEKLENSPGHGKSPDHRGRVSSLLHKPEFPDGEMMEVLI
Consider B1, for which, in assay [6], the binding result is given as “binds”.
